This is an account of results in the supplement of paper PMC10735217.

The list shows a part of the results. Repeats in this data set agree poorly, so a single value says little.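 The human kidney-derived cells carry a stably integrated construct of eight TEAD-binding elements driving luciferase, read by luminescence in a drug-repurposing library screen. A compound counts as a hit when its signal is more than five robust Z scores above the plate mean.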

The subject of the assay is HEK293A TEAD-LUC reporter. Kind of assay: TEAD-luciferase reporter activity (YAP activation), robust Z score vs plate; higher = stronger YAP/TEAD activation. The following applies: 24 h.

With `O=C(CO)NCCCOc1cccc(CN2CCCCC2)c1`, the TEAD-luciferase reporter activity is, setting by setting: (compound concentration: 200 nM) inactive: -0.61; (compound concentration: 2 uM) inactive: -0.236; (compound concentration: 10 uM) inactive: -1.54.
Taken in the same sequence, the figures for `C/C(=C(\CCOC(=O)c1ccccc1)SC(=O)c1ccccc1)N(C=O)Cc1cnc(C)nc1N` [Dibenzoyl Thiamine] were inactive: -1.83, inactive: -0.0567 and inactive: -0.679.
For the molecule `CCSC(=O)c1cccc(C(=O)SCC)c1`, the TEAD-luciferase reporter activity was inactive: -1.9 (compound concentration: 200 nM), inactive: -1.59 (compound concentration: 2 uM) and inactive: 0.0813 (compound concentration: 10 uM).
Consider `CCN(CC)c1ccc(S(=O)(=O)N2CCOCC2)cc1NC1=Nc2cccc3cccc1c23`, for which the TEAD-luciferase reporter activity reads like this: (compound concentration: 200 nM) inactive: 0.919; (compound concentration: 2 uM) inactive: -0.787; (compound concentration: 10 uM) inactive: 1.82.
Taken in the same sequence, the figures for `CC(=O)N[C@@H](CC(C)C)C(=O)O` [Tanganil] were inactive: 0.728, inactive: -1.13 and inactive: -0.0822.
As for `CC(C)=CC(=O)NS(=O)(=O)c1ccc(N)cc1`, the TEAD-luciferase reporter activity reads like this: (compound concentration: 200 nM) inactive: -0.876; (compound concentration: 2 uM) inactive: -1.31; (compound concentration: 10 uM) inactive: -1.08.
Taken in the same sequence, the figures for `CC(C)=CCOc1cc(NC(=O)c2ccoc2)ccc1Cl` were inactive: 0.482, inactive: 0.0808 and inactive: 0.492.
For `COc1cc(COc2cc(N)c(Cl)cc2C(=O)CCC2CCN(CCNS(C)(=O)=O)CC2)cc(OC)c1`, the TEAD-luciferase reporter activity was inactive: 3.93 (compound concentration: 200 nM), inactive: -1.48 (compound concentration: 2 uM) and inactive: 0.29 (compound concentration: 10 uM).
As to `Nc1c(Cl)cc(C(O)CNCCCCCCOCCc2ccccn2)cc1Cl` (stereo unspecified) [Picumeterol], the TEAD-luciferase reporter activity is, setting by setting: (compound concentration: 200 nM) inactive: -0.838; (compound concentration: 2 uM) inactive: -0.351; (compound concentration: 10 uM) inactive: 0.117.
Turning to `CN1CCN(CC(=O)N2c3ccccc3C(=O)Nc3cccnc32)CC1` [pirenzepine], the TEAD-luciferase reporter activity runs as follows: (compound concentration: 200 nM) inactive: -0.65; (compound concentration: 2 uM) inactive: 1.28; (compound concentration: 10 uM) inactive: -0.0662.
With `CCC(CC)NC(=O)c1cnc2cc(C)nn2c1`, the TEAD-luciferase reporter activity runs as follows: (compound concentration: 200 nM) inactive: 0.155; (compound concentration: 10 uM) inactive: -0.725.
Turning to `Cc1ccc(OC(C)(C)[C@@H]2OC[C@@H](C/C=C\CCC(=O)O)[C@H](c3cccnc3)O2)c([N+](=O)[O-])c1`, the TEAD-luciferase reporter activity was inactive: -0.62 (compound concentration: 200 nM), inactive: -0.098 (compound concentration: 2 uM) and inactive: -0.299 (compound concentration: 10 uM).
Turning to `C1OC1CN1CCC(C2CCN(CC3CO3)CC2)CC1` (stereo unspecified), the TEAD-luciferase reporter activity is inactive: -1.48 (compound concentration: 200 nM), inactive: 0.0757 (compound concentration: 2 uM) and inactive: 0.882 (compound concentration: 10 uM).
For the molecule `O=C(OCCO)c1ccccc1O`, the TEAD-luciferase reporter activity is, setting by setting: (compound concentration: 200 nM) inactive: -1.23; (compound concentration: 2 uM) inactive: -1.65; (compound concentration: 10 uM) inactive: 0.317.
Taken in the same sequence, the figures for `CN1CCN(c2ccc(OC(F)(F)F)c(Nc3ncc4c(n3)-c3c(c(C(N)=O)nn3CCO)CC4)c2)CC1` were inactive: -3.33, inactive: -0.911 and inactive: 3.98.
Taken in the same sequence, the figures for `Clc1ccc(Nc2nnc(Cc3ccncc3)c3ccccc23)cc1` [Vatalanib succinate] were inactive: -1.21, inactive: -1.18 and active: 7.83.
As for `CCOC(CN1CCN(CC(C)C(=O)c2ccccc2)CC1)c1ccccc1` (stereo unspecified), the TEAD-luciferase reporter activity is inactive: 0.314 (compound concentration: 200 nM), inactive: -1.19 (compound concentration: 2 uM) and inactive: -0.848 (compound concentration: 10 uM).
With `O=C1NC2(Cc3ccccc31)CN(CC1CCCC1)C2`, the TEAD-luciferase reporter activity (compound concentration: 200 nM) is active: 5.53 and the TEAD-luciferase reporter activity (compound concentration: 10 uM) is inactive: -0.486.
For `Nc1ccc(S(=O)(=O)Nc2cccc3c(Cl)c[nH]c23)cn1`, the TEAD-luciferase reporter activity is inactive: 0.118 (compound concentration: 200 nM), inactive: 2.69 (compound concentration: 2 uM) and inactive: 2.73 (compound concentration: 10 uM).
For the molecule `CC1CN(C(=O)CC#N)C12CCCN(c1ncnc3[nH]ccc13)C2` (stereo unspecified) [mistaken for JTE-052], the TEAD-luciferase reporter activity (compound concentration: 200 nM) was inactive: -0.383, the TEAD-luciferase reporter activity (compound concentration: 2 uM) was inactive: 0.7 and the TEAD-luciferase reporter activity (compound concentration: 10 uM) is inactive: -0.179.
As for `NC1=NC(=O)N([C@H]2C[C@@H](O)[C@@H](CO)O2)CN1`, the TEAD-luciferase reporter activity by setting is: (compound concentration: 200 nM) inactive: -0.371; (compound concentration: 2 uM) inactive: -0.165; (compound concentration: 10 uM) inactive: 0.557.
As for `CC(C)(C)NCC(O)c1ccc(CO)c(O)c1` (stereo unspecified) [salbutamol], the TEAD-luciferase reporter activity (compound concentration: 2 uM) was inactive: -0.374.
With `CC(CN(C)C)Oc1cccc(Br)c1-c1cc2c(c3c1C(=O)N(C)C3=O)c1ccccc1n2C` (stereo unspecified), the TEAD-luciferase reporter activity is inactive: -0.309 (compound concentration: 200 nM), inactive: 0.177 (compound concentration: 2 uM) and inactive: 1.92 (compound concentration: 10 uM).
As to `O=C(O)c1ccc(CCCC2SCC(=O)N2CCC2(O)CCCCC2)cc1` (stereo unspecified), the TEAD-luciferase reporter activity was inactive: -1.88 (compound concentration: 200 nM), inactive: 0.491 (compound concentration: 2 uM) and inactive: 2.22 (compound concentration: 10 uM).
For `O=C(Oc1ccccc1C(=O)O)c1ccccc1O` [Salsalate], the TEAD-luciferase reporter activity by setting is: (compound concentration: 200 nM) inactive: 0.617; (compound concentration: 2 uM) inactive: 0.366; (compound concentration: 10 uM) inactive: 0.988.
For the molecule `CC(C)S(=O)(=O)N[C@H]1CC[C@H](CNc2nc(-c3ccccn3)cs2)CC1`, the TEAD-luciferase reporter activity is inactive: 3.36 (compound concentration: 200 nM), inactive: -0.746 (compound concentration: 2 uM) and inactive: -0.751 (compound concentration: 10 uM).
Taken in the same sequence, the figures for `O=C(NC(=O)c1ccccc1[N+](=O)[O-])Nc1ccc(Oc2ncc(Br)cn2)c(Cl)c1` were inactive: -1.35, inactive: 2.85 and inactive: 2.69.
Consider `CC[C@H](C)C1NC(=O)[C@H](CCCNC(=N)N)NC(=O)C(CC(=O)O)NC(=O)C(CCSC)NC(=O)C(CCCNC(=N)N)NC(=O)CNC(=O)CNC(=O)[C@H](Cc2ccccc2)NC(=O)C(NC(=O)[C@H](CO)NC(=O)[C@H](CO)NC(=O)[C@@H](N)CCCNC(=N)N)CSSC[C@@H](C(=O)N[C@@H](CC(N)=O)C(=O)N[C@@H](CO)C(=O)N[C@@H](Cc2ccccc2)C(=O)N[C@@H](CCCNC(=N)N)C(=O)N[C@@H](Cc2ccc(O)cc2)C(=O)O)NC(=O)CNC(=O)C(CC(C)C)NC(=O)CNC(=O)C(CO)NC(=O)[C@H](CCC(N)=O)NC(=O)[C@H](C)NC(=O)CNC1=O` (stereo partly specified) [Anaritide], for which the TEAD-luciferase reporter activity reads like this: (compound concentration: 200 nM) inactive: -0.305; (compound concentration: 10 uM) inactive: 0.0158.
Turning to `COc1ccccc1N1CCN(CC(O)c2ccc(F)cc2)CC1` (stereo unspecified), the TEAD-luciferase reporter activity (compound concentration: 200 nM) is inactive: -0.694, the TEAD-luciferase reporter activity (compound concentration: 2 uM) was inactive: 0.757 and the TEAD-luciferase reporter activity (compound concentration: 10 uM) is inactive: 1.08.
Consider `O=c1[nH]c(=O)n([C@H]2C[C@H](F)[C@@H](CO)O2)cc1Cl`, for which the TEAD-luciferase reporter activity runs as follows: (compound concentration: 200 nM) inactive: -0.654; (compound concentration: 2 uM) inactive: -0.678; (compound concentration: 10 uM) inactive: 3.33.
On to `COc1nc(C)nc(Cl)c1NC1=NCCN1` [moxonidine], for which, where the note is “compound concentration: 2 uM”, the TEAD-luciferase reporter activity is inactive: 0.344.
With `COc1nc(C)nc(Cl)c1NC1=NCCN1`, the TEAD-luciferase reporter activity is, setting by setting: (compound concentration: 200 nM) inactive: 1.1; (compound concentration: 10 uM) inactive: -0.929.
Take `COc1cc(C(C)C)ccc(CN2CCCN(C(c3ccc(F)cc3)c3ccc(F)cc3)CC2)c1=O`: the TEAD-luciferase reporter activity (compound concentration: 200 nM) is inactive: -0.965, the TEAD-luciferase reporter activity (compound concentration: 2 uM) is inactive: -1.26 and the TEAD-luciferase reporter activity (compound concentration: 10 uM) is inactive: 0.939.
Regarding `CC1(C)S[C@@H]2[C@H](NC(=O)c3nc4ccccc4nc3C(=O)O)C(=O)N2[C@H]1C(=O)O`, the TEAD-luciferase reporter activity is inactive: -0.293 (compound concentration: 200 nM), inactive: -0.0456 (compound concentration: 2 uM) and inactive: -0.685 (compound concentration: 10 uM).
With `COc1cccc(CN2CCCCC23Cc2ccccc2CNC3=O)c1` (stereo unspecified), the TEAD-luciferase reporter activity was inactive: 0.482 (compound concentration: 200 nM) and inactive: -1.23 (compound concentration: 10 uM).
